Patent publication US20250320294A1
Results are given in words; binding and its absence hold for the method and conditions named. Some entries that bind do so weakly or less than the wild type.

By UniProt entry, the sequences of proteins in these tests, tags left out. Residues count along the entry.
UniProt P08575, residues 26-1306: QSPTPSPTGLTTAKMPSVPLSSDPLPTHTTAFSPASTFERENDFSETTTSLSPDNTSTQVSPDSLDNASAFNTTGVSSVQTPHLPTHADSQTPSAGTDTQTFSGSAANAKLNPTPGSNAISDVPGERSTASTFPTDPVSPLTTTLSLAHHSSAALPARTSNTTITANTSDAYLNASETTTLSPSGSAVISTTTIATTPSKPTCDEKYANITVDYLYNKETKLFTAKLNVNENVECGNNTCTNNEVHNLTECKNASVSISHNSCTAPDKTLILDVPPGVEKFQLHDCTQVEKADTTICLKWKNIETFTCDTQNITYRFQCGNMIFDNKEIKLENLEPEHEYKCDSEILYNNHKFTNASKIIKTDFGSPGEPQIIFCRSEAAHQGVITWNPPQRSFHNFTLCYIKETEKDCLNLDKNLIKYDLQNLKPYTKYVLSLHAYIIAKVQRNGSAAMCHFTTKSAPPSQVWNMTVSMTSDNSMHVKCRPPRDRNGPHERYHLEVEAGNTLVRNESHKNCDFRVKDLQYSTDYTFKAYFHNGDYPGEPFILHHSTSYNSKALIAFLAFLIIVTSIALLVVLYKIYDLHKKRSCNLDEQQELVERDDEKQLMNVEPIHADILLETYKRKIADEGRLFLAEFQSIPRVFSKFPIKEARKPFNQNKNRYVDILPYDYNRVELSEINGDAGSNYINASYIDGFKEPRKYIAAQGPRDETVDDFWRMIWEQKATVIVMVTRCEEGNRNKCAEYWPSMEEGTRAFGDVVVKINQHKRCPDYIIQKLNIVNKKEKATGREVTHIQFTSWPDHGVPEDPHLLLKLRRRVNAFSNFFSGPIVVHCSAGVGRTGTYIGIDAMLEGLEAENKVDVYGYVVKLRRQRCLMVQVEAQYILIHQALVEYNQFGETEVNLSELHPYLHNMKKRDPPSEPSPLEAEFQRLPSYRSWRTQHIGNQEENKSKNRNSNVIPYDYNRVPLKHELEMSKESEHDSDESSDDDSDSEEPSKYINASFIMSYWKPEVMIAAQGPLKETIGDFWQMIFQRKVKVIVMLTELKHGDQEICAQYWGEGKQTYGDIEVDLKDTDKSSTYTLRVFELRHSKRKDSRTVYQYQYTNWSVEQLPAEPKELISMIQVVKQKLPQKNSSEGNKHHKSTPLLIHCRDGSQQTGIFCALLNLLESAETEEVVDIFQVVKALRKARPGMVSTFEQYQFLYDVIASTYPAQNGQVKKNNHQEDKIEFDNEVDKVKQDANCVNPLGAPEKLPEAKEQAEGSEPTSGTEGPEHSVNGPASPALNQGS

How the values were obtained:
cell-expressed CD45 [1] = molecular target: cell-expressed CD45 (UniProt P08575); experiment: flow cytometry, Raji cells
cell-expressed CD45 [2] = molecular target: cell-expressed CD45 (UniProt P08575); experiment: flow cytometry, Jurkat cells
cell-expressed CD45 [3] = molecular target: cell-expressed CD45 (UniProt P08575); experiment: flow cytometry, wild type Raji B cells, 10, 1 or 0.1 µg/ml antibody, anti-human-Fc secondary
cell-expressed CD45 [4] = molecular target: cell-expressed CD45 (UniProt P08575); experiment: flow cytometry, wild type Jurkat T cells, 10, 1 or 0.1 µg/ml antibody, anti-human-Fc secondary

Measured: binding

B1: anti-CD45 antibody clone 028 (antibody, V domains shown)
VH: QVQLQQSGAELARPGASVKMSCKASGYTFTFYAILWVKQMPGQGLEWIGFINPSSGYTSYNQKFKDKATLTADKSSSTAYMQLSSLTSEDSAVYYCARDYGLDYWGQGTTLAVSS
VL: DIVMTQAAPSVPVTPGESVSISCRSSKSLLHSNGNTYLYWFLQRPGQSPQLLIYRMSNLASGVPDRFSGSGSGTAFTLGISRVEAGDVGVYYCMQHLEYPFTFGSGTKLEIK
binds: all assays above

B2: anti-CD45 antibody clone 031 (antibody, V domains shown)
VH: DVQLVESGGGLVQPGGSRKLSCAASGFTFSSFGMHWVRQAPEKGLEWVAYINSGSTTFYYADTVKGRFTISRDNPKNTLFLQMTSLGSEDTAMYYCARSATATWTMDYWGQGTSVTVSS
VL: NIMMTQSPSSLAVSAGEKVTMSCKSSQSVFVSSNQKNYLAWYQQKPGQSPKLLIYWASTRESAVPDRFTGSGSGTDFTLTIGSVQAEDLAVYYCHQYLSSWTFGGGTKLEIK
binds: all assays above

B3: anti-CD45 antibody clone 042 (antibody, V domains shown)
VH: EVQLQQSGAELVKPGASVKLSCTASGFNIKDTFMHWVKLRPEQGLEWIGRIDPANGYTKYDPRFQGKATIIADTSSNTAYLQLSSLTSEDTAVYYCASGEYYALDYWGQGTSVTVSS
VL: DIVLTQSPASLTVSLGQRATISCRASKSVSTSGYSYMHWYQQKPGQPPKLLIYLASNLESGVPARFSGSGSGTDFTLNIHPVEEEDAATYYCQHNRELPYTFGGGTKLEIK
binds: all assays above
